Assay results published in PubChem BioAssay AID2662 (National Center for Advancing Translational Sciences (NCATS), 2010).
Hit rate of the full screen: of about 290,000 compounds, about 110 (0.038%) were called active. The inconclusive results got no clear call from the source; some entries with a clear call stand among them for comparison. The call rests on the fitted dose curve; in most records, active means well fitted inhibition curve with a large enough effect in the polarisation, with a control signal flat (not every such curve was filed as active); inconclusive means small, poorly fitted or top-dose-only effect, or effect the other way, or a change in a side signal; inactive means no such curve, though single readings can be large or run the other way; the % refers to the polarisation. Where the call is inconclusive, the potency comes from a doubtful curve fit. A note “side channel” means that the fit belongs to a control or component signal, not to the main read-out.

The chains behind the UniProt entries cited, without tags or fusion partners.
UniProt Q03164, whole entry, looked up: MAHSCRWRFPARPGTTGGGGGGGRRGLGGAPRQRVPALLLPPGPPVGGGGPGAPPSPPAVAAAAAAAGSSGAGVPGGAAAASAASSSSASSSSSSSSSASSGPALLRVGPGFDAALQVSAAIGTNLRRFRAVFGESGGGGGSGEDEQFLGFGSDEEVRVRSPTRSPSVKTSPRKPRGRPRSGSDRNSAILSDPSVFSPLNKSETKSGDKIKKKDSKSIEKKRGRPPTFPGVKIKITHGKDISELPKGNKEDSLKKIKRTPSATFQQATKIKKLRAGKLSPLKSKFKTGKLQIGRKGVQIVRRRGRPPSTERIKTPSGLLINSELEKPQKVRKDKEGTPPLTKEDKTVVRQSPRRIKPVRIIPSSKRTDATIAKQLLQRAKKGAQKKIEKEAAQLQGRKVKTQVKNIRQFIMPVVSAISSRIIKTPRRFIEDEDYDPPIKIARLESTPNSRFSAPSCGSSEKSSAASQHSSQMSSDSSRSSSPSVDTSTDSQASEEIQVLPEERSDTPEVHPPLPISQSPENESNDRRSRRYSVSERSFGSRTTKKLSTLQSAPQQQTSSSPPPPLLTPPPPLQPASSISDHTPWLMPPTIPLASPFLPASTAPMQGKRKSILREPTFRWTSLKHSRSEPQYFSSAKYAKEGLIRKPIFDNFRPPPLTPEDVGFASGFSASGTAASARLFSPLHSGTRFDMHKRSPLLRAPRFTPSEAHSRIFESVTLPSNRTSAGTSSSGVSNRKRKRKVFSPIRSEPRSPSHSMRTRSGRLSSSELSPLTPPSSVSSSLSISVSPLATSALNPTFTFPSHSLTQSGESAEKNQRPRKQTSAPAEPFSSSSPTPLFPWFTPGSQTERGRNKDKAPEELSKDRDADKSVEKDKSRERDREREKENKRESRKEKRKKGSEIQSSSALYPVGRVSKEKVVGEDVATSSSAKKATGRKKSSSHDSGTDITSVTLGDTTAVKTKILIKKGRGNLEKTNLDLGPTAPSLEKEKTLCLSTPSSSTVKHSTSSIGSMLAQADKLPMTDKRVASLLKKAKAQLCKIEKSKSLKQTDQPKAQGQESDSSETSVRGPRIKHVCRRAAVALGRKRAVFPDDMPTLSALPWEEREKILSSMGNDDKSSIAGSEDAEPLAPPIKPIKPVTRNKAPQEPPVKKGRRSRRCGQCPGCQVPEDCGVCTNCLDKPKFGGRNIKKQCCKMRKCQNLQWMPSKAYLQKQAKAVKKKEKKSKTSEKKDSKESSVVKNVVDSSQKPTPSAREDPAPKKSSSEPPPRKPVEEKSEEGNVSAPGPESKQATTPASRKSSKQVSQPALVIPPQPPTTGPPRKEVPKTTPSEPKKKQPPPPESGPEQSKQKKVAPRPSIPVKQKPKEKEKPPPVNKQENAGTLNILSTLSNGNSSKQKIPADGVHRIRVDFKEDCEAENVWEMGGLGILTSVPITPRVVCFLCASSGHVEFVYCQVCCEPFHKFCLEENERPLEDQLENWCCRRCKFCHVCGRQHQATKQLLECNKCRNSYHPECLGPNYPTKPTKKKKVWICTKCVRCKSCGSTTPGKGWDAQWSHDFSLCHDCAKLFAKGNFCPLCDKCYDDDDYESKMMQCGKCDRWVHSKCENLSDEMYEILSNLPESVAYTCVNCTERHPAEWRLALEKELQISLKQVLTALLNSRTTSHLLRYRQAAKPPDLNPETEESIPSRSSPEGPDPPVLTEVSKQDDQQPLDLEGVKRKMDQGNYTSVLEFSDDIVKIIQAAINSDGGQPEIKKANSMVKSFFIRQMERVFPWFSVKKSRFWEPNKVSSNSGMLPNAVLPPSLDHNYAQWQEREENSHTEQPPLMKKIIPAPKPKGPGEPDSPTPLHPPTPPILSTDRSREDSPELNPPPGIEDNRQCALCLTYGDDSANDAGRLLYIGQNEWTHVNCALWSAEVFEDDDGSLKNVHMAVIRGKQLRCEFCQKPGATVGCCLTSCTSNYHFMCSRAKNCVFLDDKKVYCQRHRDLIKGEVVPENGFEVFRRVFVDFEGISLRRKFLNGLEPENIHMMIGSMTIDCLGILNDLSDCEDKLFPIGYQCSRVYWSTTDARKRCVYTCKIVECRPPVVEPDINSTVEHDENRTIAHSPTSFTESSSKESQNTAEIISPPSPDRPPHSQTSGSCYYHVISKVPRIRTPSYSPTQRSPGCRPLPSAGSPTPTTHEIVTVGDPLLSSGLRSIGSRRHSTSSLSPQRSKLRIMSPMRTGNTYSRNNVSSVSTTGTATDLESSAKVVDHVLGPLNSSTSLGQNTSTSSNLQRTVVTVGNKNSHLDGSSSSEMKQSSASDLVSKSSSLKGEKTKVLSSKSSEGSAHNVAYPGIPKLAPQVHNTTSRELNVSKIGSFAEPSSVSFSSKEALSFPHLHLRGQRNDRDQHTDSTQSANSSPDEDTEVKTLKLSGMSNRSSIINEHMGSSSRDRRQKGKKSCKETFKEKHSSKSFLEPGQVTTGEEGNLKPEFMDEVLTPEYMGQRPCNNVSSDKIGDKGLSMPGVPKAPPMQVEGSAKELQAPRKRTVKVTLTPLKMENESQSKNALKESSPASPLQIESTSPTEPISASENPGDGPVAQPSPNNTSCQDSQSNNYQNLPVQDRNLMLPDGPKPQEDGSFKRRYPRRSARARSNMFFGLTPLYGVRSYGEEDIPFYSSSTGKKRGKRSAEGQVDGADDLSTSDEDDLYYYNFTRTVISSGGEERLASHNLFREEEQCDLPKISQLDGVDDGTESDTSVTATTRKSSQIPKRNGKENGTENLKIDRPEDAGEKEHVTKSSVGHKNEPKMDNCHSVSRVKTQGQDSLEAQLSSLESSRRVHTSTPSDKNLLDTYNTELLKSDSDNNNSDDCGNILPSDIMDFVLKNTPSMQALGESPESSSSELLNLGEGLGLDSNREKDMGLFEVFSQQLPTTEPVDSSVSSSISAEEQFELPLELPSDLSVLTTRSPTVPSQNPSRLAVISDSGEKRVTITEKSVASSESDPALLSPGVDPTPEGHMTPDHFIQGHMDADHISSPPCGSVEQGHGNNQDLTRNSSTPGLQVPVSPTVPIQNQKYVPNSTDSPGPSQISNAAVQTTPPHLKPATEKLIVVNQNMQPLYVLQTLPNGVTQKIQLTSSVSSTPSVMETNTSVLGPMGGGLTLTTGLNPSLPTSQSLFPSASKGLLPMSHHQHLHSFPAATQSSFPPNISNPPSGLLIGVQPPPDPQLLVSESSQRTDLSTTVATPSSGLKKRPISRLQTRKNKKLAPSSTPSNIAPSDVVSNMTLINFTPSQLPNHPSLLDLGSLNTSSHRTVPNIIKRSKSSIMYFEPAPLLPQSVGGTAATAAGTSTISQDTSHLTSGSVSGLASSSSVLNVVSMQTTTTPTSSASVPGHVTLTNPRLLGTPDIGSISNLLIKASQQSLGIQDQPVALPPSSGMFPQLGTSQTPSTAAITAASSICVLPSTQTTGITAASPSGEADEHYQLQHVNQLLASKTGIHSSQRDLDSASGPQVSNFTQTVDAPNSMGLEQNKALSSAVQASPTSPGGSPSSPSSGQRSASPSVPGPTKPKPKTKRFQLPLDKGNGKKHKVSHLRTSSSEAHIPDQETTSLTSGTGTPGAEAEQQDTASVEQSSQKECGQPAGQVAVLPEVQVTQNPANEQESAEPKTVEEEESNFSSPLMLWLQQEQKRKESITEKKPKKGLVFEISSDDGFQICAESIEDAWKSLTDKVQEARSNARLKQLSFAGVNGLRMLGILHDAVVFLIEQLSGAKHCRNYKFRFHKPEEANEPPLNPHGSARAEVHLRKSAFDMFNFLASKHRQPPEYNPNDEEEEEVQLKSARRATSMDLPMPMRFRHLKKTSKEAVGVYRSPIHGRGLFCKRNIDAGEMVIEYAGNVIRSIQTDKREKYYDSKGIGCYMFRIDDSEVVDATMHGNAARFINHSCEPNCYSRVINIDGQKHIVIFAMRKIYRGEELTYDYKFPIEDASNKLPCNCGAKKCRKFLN

Molecular target: Histone-lysine N-methyltransferase 2A (Homo sapiens) (UniProt Q03164)
Test: qHTS Fluorescence Polarization Assay for Inhibitors of MLL CXXC domain - DNA interaction
Details: MLL-CXXC / FITC-HOXA9 DNA fluorescence polarization; series mostly up to 115 µM
Text: NIH Chemical Genomics Center [NCGC] NIH Molecular Libraries Probe Production centers Network [MLPCN] MLPCN Grant: DA027717-01A1 Assay Submitter (PI): John Bushweller NCGC Assay Overview: The MLL (Mixed Lineage Luekemia) gene is involved in chromosomal translocation that results in either acute lymphoid leukemia (ALL) or acute myeloid leukemia (AML). Chromasomal translocation of MLL gene is responsible for the fusion of N-terminal MLL to more than 60 different partner genes in frame. Many of the MLL partner genes contain transcription activation domains or function as transcriptional activators. Despite the heterogeneity of fusion partners, the N-terminus of MLL fusion proteins always consists of the N-terminal menin binding motif and the CXXC domain. The MLL-CXXC domain specifically recognizes unmethylated CpG sequences of the HOX-A gene. Disruption of the MLL-CXXC and HOX-A gene interaction leads to down regulation of HOX-A gene expression and may potentially reverse leukemogenesis. We have miniaturized and optimized an in-vitro assay to screen for inhibitors of the MLL-CXXC domain and HOX-A DNA interaction, which could have utility in MLL fusion leukemias.
The affinity purified MLL-CXXC domain, unlabeled HOX-A9 DNA strand, fluorescein (FLSN) labeled HOX-A9 DNA strand were kindly supplied by the laboratory of Dr. John Bushweller, University of Virginia. All reagents were stored in single use aliquots at -80C. Assay Reagents: Assay buffer: 50 mM TRIS-HCl pH 7.5, 50 mM NaCl, 1 mM DTT. Add 0.05% BSA prior to reaction setup. Assay Procedure: 1.Dispense 1 ul of a 7 uM MLL-CXXC solution prepared in assay buffer into column 1-48. 2.Transfer 23 nl of compounds and unlabeled HOX-A9 per well. 3.Incubate for 5 minutes at ambient. 4.Dispense 1ul of a 50 nM FLSN-HOX-A9 solution prepared in assay buffer into columns 1-48 5.Centrifuge for 30 seconds at 1000 RPM. 6.Incubate for 30 minutes at ambient. 7.Read using the Envision reader fluorescent polarization protocol.
Potency means the concentration at half of the fitted maximal effect.

Compound | Potency
O=C(Nc1ccccc1)c1nc2ccccc2s1 | inactive
CCN(CC)c1ccc2cc(-c3nc4ccccc4[nH]3)c(=O)oc2c1 | inconclusive: 0.447 µM [fluorescent, side channel, full curve]
COc1cccc(/C=N/NC(=O)CN2CC(c3ccccc3)CC2=O)c1O (configuration not stated) | inconclusive: 10 µM [fluorescent, side channel, full curve, poor fit]
CSc1nc(N)c2ncn([C@@H]3O[C@H](COP(=O)(O)OP(=O)(O)O)[C@H](O)[C@H]3O)c2n1 | inconclusive: 0.251 µM [inhibitor, full curve, poor fit]
O=C(O)c1cc(-c2ccc(/C=C3/SC(=S)N(Cc4ccccc4)C3=O)o2)ccc1Cl | inconclusive: 28.2 µM [fluorescent, side channel, partial curve]
CCn1c(CCNC(=O)c2ccc(C)cc2)nnc1SCc1ccc(Cl)c(Cl)c1 | inconclusive: 6.31 µM [quencher, side channel, full curve, poor fit]
COc1ccc(CCN(Cc2cccs2)S(=O)(=O)c2ccc(S(=O)(=O)N3CCC(C)CC3)cc2)cc1OC | inconclusive: 63.1 µM [inhibitor, single point]
O=C(C[n+]1cccc(O)c1)Nc1ccc(Br)cc1 | inactive
O=c1c2ccccc2[nH]c(=S)n1Cc1ccc2c(c1)OCO2 | inconclusive: 11.2 µM [fluorescent, side channel, full curve]
O=C(N/N=C/c1ccc[nH]1)c1cc(-c2ccc(Cl)cc2)nc2ccccc12 | inconclusive: 39.8 µM [fluorescent, side channel, single point]
O=S(=O)(CCSc1ccccn1)c1nc2ccccc2s1 | inconclusive: 3.55 µM [fluorescent, side channel, full curve]
COc1cc(C2NC(=O)NC(c3ccccc3)=C2C(C)=O)cc([N+](=O)[O-])c1O (configuration not stated) | inconclusive: 1.41 µM [inhibitor, partial curve, poor fit]
O=C(CSc1n[nH]c(-c2ccccc2)n1)Nc1ncccn1 | inconclusive: 31.6 µM [fluorescent, side channel, partial curve]
CCn1c2ccccc2c2cc(CNCCCN3CCOCC3)ccc21 | inconclusive: 14.1 µM [quencher, side channel, single point]
COc1ccc(/C=N/NC(=O)c2[nH]c3ccc(Br)cc3c2-c2ccccc2)c(C(=O)O)c1OC | inactive
O=S(=O)(c1ccc(Cl)cc1)c1cc(O)ccc1O | inactive
CCN1/C(=C/c2ccc3ccccc3[n+]2CC)C=Cc2ccccc21 | inconclusive: 89.1 µM [quencher, side channel, single point]
Cc1nn(C)cc1CNCc1c(C(=O)N2CCCCC2)nc2c(C)cccn12 | inconclusive: 5.62 µM [quencher, side channel, full curve]
O=C(O)Cc1ccc2c(c1)N(S(=O)(=O)c1cccs1)CC(C(=O)O)O2 (configuration not stated) | inconclusive: 14.1 µM [fluorescent, side channel, single point]
CCN1C(c2ccccc2)=C(c2ccccc2)S/C1=C/C=C1\SC(=S)N(C)C1=O | inactive
Cc1ccc(Nc2nc(N)nc(CN3CCN(c4ccccc4)CC3)n2)cc1Cl | inactive

Compound | Potency
Cc1cc(NS(=O)(=O)c2ccc(NC(=O)COc3ccc(Cl)cc3)cc2)no1 | inactive
Cc1ccccc1C(=O)N=c1ccn(-c2nc3ccccc3nc2NS(=O)(=O)c2ccc(F)cc2)cc1 | inconclusive: 56.2 µM [fluorescent, side channel, single point]
CN1C(=O)/C(=C/C=C2\SCCN2C)OC1=S | inconclusive: 35.5 µM [fluorescent, side channel, partial curve]
CC(C)CC(=O)Nc1nnc(S(=O)(=O)Nc2ccccc2)s1 | inconclusive: 15.8 µM [inhibitor, single point]
COc1cccc(C2CC(c3cccs3)=NN2S(C)(=O)=O)c1 (configuration not stated) | inconclusive: 11.2 µM [fluorescent, side channel, single point]
Cc1cc(=O)[nH]c(Nc2ccc(Cl)cc2)n1 | inactive
Cc1ccc(CCNC(=O)C2CCC(=O)N(CC3CCCCC3)C2)cc1 (configuration not stated) | inconclusive: 89.1 µM [quencher, side channel, single point]
Cc1cc(SCC(=O)Nc2cccc(S(=O)(=O)N3CCOCC3)c2)nc2ccccc12 | inconclusive: 50.1 µM [fluorescent, side channel, single point]
COc1ccccc1-c1cn[nH]c1-c1ccc(O)cc1O | inactive
C(=C\c1cc(/C=C/c2ccccc2)ncn1)/c1ccccc1 | inactive
O=C(N/N=C/c1cc(Br)ccc1O)c1ccncc1 | inconclusive: 6.31 µM [quencher, side channel, partial curve]
CNC(=O)c1c(NC(=O)c2ccc(S(=O)(=O)N(C)c3ccccc3)cc2)sc2c1CCN(C(C)C)C2 | inconclusive: 31.6 µM [fluorescent, side channel, partial curve]
CCOc1ccc(Cn2c3ccc(OC)cc3c3nc4ccccc4nc32)cc1 | inconclusive: 31.6 µM [fluorescent, side channel, partial curve]
O=C(NCCNc1ccnc2cc(Cl)ccc12)c1ccccc1F | inconclusive: 63.1 µM [inhibitor, single point]
CCn1c(=O)n(CC)c2cc(N3CCCC3)c(NC(=O)c3ccc(OC)c(Br)c3)cc21 | inconclusive: 35.5 µM [quencher, side channel, single point]
COc1ccc(CCNC(=O)CCc2nc3sc4c(c3c(=O)[nH]2)CCCC4)cc1 | inconclusive: 35.5 µM [fluorescent, side channel, single point]
Cc1ccccc1CN1CCNC(=O)C1CC(=O)NC1CCCCCCC1 (configuration not stated) | inconclusive: 14.1 µM [fluorescent, side channel, single point]
CCOc1cccc(CNc2ccc(O)cc2)c1OCc1ccc(Cl)cc1 | inactive
C/C(=N\NC(=O)c1cccc2ccccc12)c1cccs1 | inconclusive: 11.2 µM [fluorescent, side channel, single point]
COCCNC(=O)CCc1c(C)nc2c(c(C)nn2-c2ccc(C)c(C)c2)c1C | inconclusive: 44.7 µM [fluorescent, side channel, single point]
C/C(=N\NC(=O)c1cc(C)oc1C)c1ccc2ccccc2c1 | inactive

An excerpt of these results, with tabs:
Compound	Potency
CSc1nc(N)c2ncn([C@@H]3O[C@H](COP(=O)(O)OP(=O)(O)O)[C@H](O)[C@H]3O)c2n1	inconclusive: 0.251 µM [inhibitor, full curve, poor fit]
O=C(O)c1cc(-c2ccc(/C=C3/SC(=S)N(Cc4ccccc4)C3=O)o2)ccc1Cl	inconclusive: 28.2 µM [fluorescent, side channel, partial curve]
CCn1c(CCNC(=O)c2ccc(C)cc2)nnc1SCc1ccc(Cl)c(Cl)c1	inconclusive: 6.31 µM [quencher, side channel, full curve, poor fit]

(continued)

Compound | Potency
COc1ccc(Nc2nc(NN)nc(Nc3ccc(OC)cc3)n2)cc1 | inconclusive: 31.6 µM [quencher, side channel, single point]
COC(=O)c1ccc(CN2CCC(CO)(CCOc3ccccc3)CC2)cc1 | inactive
C[n+]1cccc(C(=O)NCC2CCCO2)c1 (configuration not stated) | inactive
O=C1CCC(C(=O)Nc2cccc(C(F)(F)F)c2)N1 (configuration not stated) | inactive
COc1ccc(/C=C2\CC/C(=C\c3ccc(OC)cc3OC)C2=O)c(OC)c1 | inconclusive: 44.7 µM [fluorescent, side channel, partial curve]
Cc1cccc(OCC(=O)N/N=C/c2ccc(N(C)C)cc2)c1 | inconclusive: 89.1 µM [inhibitor, single point]
O=C(NNc1c2ccccc2nc2ccccc12)c1cccc(O)c1 | inconclusive: 28.2 µM [quencher, side channel, partial curve, poor fit]
CCCCCCCC(=O)Oc1ccc(C(=O)Nc2cc(C)on2)cc1 | inconclusive: 15.8 µM [fluorescent, side channel, partial curve]
Cc1ccc(NC(=S)NC(=O)/C=C/c2ccco2)c(O)c1 | inconclusive: 11.2 µM [fluorescent, side channel, full curve]
O=C1C=CC(=O)N1c1ccc(Sc2ccc([N+](=O)[O-])cc2)cc1 | inactive
O=C1C(=Cc2cccn2-c2ccc(O)cc2)C(=O)c2ccccc21 | inconclusive: 31.6 µM [inhibitor, partial curve]
O=C1Nc2ccc(Br)cc2C12NNc1ccccc1O2 (configuration not stated) | inactive
COc1ccc(C(=O)NC(=S)Nc2ccc(S(N)(=O)=O)cc2)cc1 | inconclusive: 1 µM [inhibitor, partial curve, poor fit]
CCN(CC)C(=O)CCc1nnc(Cc2cccc(C(F)(F)F)c2)o1 | inconclusive: 70.8 µM [inhibitor, single point]
CCOC(=O)C1CCCN(C(=O)Cn2sc3nc(C)cc(C)c3c2=O)C1 (configuration not stated) | inactive
COc1cc2c(cc1OC)C(C)N(C(=O)CCN1C(=O)C3C4C=CC(C4)C3C1=O)CC2 (configuration not stated) | inconclusive: 89.1 µM [quencher, side channel, single point]
CCc1ccc(NC(=O)C(C)OC(=O)c2ccc(NS(=O)(=O)c3ccc(C)c([N+](=O)[O-])c3)cc2)cc1 (configuration not stated) | inactive
N#CC(C#N)=C1C=C2C=C(N3CCOCC3)CCC2CC1 (configuration not stated) | inconclusive: 112 µM [fluorescent, side channel, partial curve, poor fit]
COc1ccccc1/C=C/C=C1\Oc2c(ccc(O)c2CN(C)C)C1=O | inconclusive: 20 µM [fluorescent, side channel, partial curve]
Cc1c(NC(=O)c2cccs2)c(=O)n(-c2ccccc2)n1C | inconclusive: 100 µM [inhibitor, partial curve, poor fit]
